PubChem BioAssay AID652243 | Drosophila RNAi Screening Center, 2013
Purpose: 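Fly genes required for human androgen receptor driven transcription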 (primary screen). Cell system: Drosophila S2R+ cells. Reagents: long dsRNA against Drosophila genes. Timing: 72 h (48 h, then 24 h hormone). Treatment: synthetic androgen R1881 at 10 nM for 24 h. Measurement: 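Firefly light from an androgen-responsive reporter and Renilla control light per well, raw and unnormalised, for each of two replicates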. Scale: firefly reporter light: higher = more light from androgen-responsive reporter; Renilla control light: higher = more constitutive control signal (cell number, transfection). Call rule: 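Hit when the log firefly-to-Renilla ratio dropped or increased by a fixed fold versus the mean of GFP or LacZ controls across duplicate plates; lowering cut given as 1.5 and as 3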. Meaning of the calls: active = hit: reporter lowered or raised; inactive = no hit.
The deposit covers about 24,000 reagents; shown is a random part of those that have a named target and a result. Of all reagents, 246 (1%) got an active call. 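Plates not normalised; calls are printed but the firefly/Renilla ratio behind them is not deposited; fold cut for lowering reported inconsistently.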 Raw values vary from plate to plate and are shown uncorrected. Reagents against one gene are numbered here. Names joined by + are all predicted targets of the reagent. Not stated in the record: the amount of reagent.

gene,dsRNA no.,"firefly reporter light, replicate 1","firefly reporter light, replicate 2","Renilla control light, replicate 1","Renilla control light, replicate 2",call
Patr-1 (Protein associated with topo II related - 1),1,18567,18387,2.78e5,3.49e5,active
Patr-1 (Protein associated with topo II related - 1),2,3.25e5,1.82e5,7.52e5,6.88e5,inactive
Trm7-34 (tRNA methyltransferase 7-34),1,5.94e5,8.38e5,3.74e6,4.25e6,inactive
Acp53C14c (Accessory gland protein 53C14c),1,8.17e5,7.78e5,1.46e6,1.78e6,inactive
CG11444,1,77511,53568,6.71e5,4.03e5,inactive
CG11444,2,6.24e5,7.14e5,6.92e5,6.94e5,inactive
mib1 (mind bomb 1),1,2.42e5,2.06e5,2.16e6,1.80e6,inactive
Cyp309a2 (Cytochrome P450 309a2),1,1.02e5,88399,7.91e5,6.54e5,inactive
Cyp309a2 (Cytochrome P450 309a2),2,8.27e5,6.24e5,1.34e6,1.49e6,inactive
CG10834,1,2.68e5,2.98e5,1.36e6,1.65e6,inactive
Fs (Follistatin),1,5.87e5,6.45e5,1.98e6,2.41e6,active
Fs (Follistatin),2,20041,19208,6.43e5,6.43e5,active
Fs (Follistatin),3,5.37e5,7.12e5,5.60e5,5.45e5,inactive
CG31224,1,1.81e5,3.02e5,1.28e6,2.46e6,inactive
CG31224,2,1.34e5,1.19e5,6.00e5,6.05e5,inactive
lush,1,3.26e5,2.22e5,2.99e6,2.07e6,inactive
CG10307,1,1.06e6,1.33e6,2.54e6,2.58e6,inactive
CG10307,2,2.43e5,2.40e5,7.25e5,6.68e5,inactive
bur (burgundy),1,1.04e6,7.94e5,2.16e6,2.28e6,inactive
Prosbeta2R1 (Proteasome beta2 subunit-related 1),1,2.56e5,3.33e5,2.13e6,3.55e6,inactive
sstn (stepping stone),1,1.66e5,1.20e5,2.01e6,1.28e6,inactive
sstn (stepping stone),2,5.19e5,6.41e5,1.48e6,1.48e6,inactive
CG18581,1,1.05e5,88254,7.04e5,7.99e5,inactive
CG17681,1,1.99e5,3.19e5,1.67e6,2.74e6,inactive
zye,1,4.31e5,2.43e5,3.20e6,2.30e6,inactive
GPHR (Golgi pH Regulator),1,80795,72687,1.44e6,1.44e6,inactive
escl,1,6.67e5,5.55e5,1.70e6,2.35e6,inactive
escl,2,2.55e5,3.09e5,6.46e5,6.34e5,inactive
CG7164,1,1.73e5,1.85e5,1.73e6,1.51e6,inactive
CG7164,2,4.12e5,3.40e5,1.12e6,8.42e5,inactive
Pez,1,2.33e5,2.26e5,1.96e6,1.75e6,inactive
Pez,2,6.03e5,4.57e5,1.31e6,1.34e6,inactive
Pez,3,,,,,inactive
RunxB (Runt related B),1,5.16e5,3.63e5,2.17e5,1.35e5,inactive
RunxB (Runt related B),2,19208,15790,94874,55300,inactive
RunxB (Runt related B),3,12893,6247,69714,35943,inactive
RunxB (Runt related B),4,7.83e5,8.95e5,7.64e5,8.91e5,inactive
RunxB (Runt related B),5,4.03e5,6.20e5,1.39e6,1.65e6,inactive
CG32176,1,3.30e5,2.91e5,2.12e6,2.36e6,inactive
CG32176,2,2.41e5,1.27e5,2.94e6,1.44e6,inactive
Gr58c (Gustatory receptor 58c),1,2.35e5,1.80e5,1.71e6,8.61e5,inactive
CG9593,1,1.08e5,1.79e5,2.15e6,2.22e6,inactive
CG10352,1,2.19e5,2.69e5,2.65e6,2.33e6,inactive
CG11403,1,45583,45374,3.92e5,4.72e5,inactive
Sodq (Sodesque),1,1.91e5,2.35e5,2.67e6,2.42e6,inactive
Sodq (Sodesque),2,3.18e5,2.00e5,3.91e5,4.18e5,inactive
RpL23A (Ribosomal protein L23A),1,7.23e5,2.12e5,1.00e6,4.17e5,inactive
RpL23A (Ribosomal protein L23A),2,6.37e5,6.38e5,2.67e6,1.56e6,inactive
RpL23A (Ribosomal protein L23A),3,1.59e5,1.64e5,7.10e5,4.08e5,inactive
CG33284,1,3.28e5,8.30e5,6.01e5,9.45e5,inactive
CG33284,2,4.37e5,4.26e5,9.99e5,1.19e6,inactive
CG14511,1,1.31e5,1.84e5,1.20e6,2.14e6,inactive
CG14511,2,2.31e5,2.15e5,6.56e5,7.34e5,inactive
CG33255 (retired record) + hpRNA:CR32205 + CR42838,1,1.45e5,1.28e5,4.34e5,4.58e5,inactive
loopin-1,1,8.19e5,9.90e5,1.77e6,1.57e6,inactive
loopin-1,2,8.55e5,9.69e5,7.72e5,9.35e5,inactive
CG18130,1,7.30e5,6.42e5,3.03e6,2.98e6,inactive
CG18130,2,7.39e5,5.51e5,8.54e5,7.33e5,inactive

Looked up above.
Result for Pez #3 in “call”: inactive
Result for Prosbeta2R1 (Proteasome beta2 subunit-related 1) under “firefly reporter light, replicate 2”: 3.33e5
Under “firefly reporter light, replicate 1”, RpL23A (Ribosomal protein L23A) #3 reads 1.59e5
Result for Fs (Follistatin) #1 in “firefly reporter light, replicate 1”: 5.87e5
Under “firefly reporter light, replicate 2”, CG18130 #2 shows 5.51e5
Value for CG10834 under “call”: inactive
